# Experimental data as given in PubChem BioAssay AID2685 (National Center for Advancing Translational Sciences (NCATS), 2010).
# The list shows a part of the results. The main result of the screen is listed elsewhere. These columns were measured beside it and carry no call. Compounds called inactive in the main read-out are mostly missing here. Words in brackets tell the shape of the fitted curve; partial curves, single points and poor fits give uncertain potencies.
# Experiment: qHTS Assay for Lipid Storage Modulators in Drosophila S3 Cells;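 for cell number change: cells counted by Cell Tracker Red CMTPX staining in the red channel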
# Conditions: BODIPY lipid droplet fluorescence, 18-24 h; for cell number change: measured here: cell count max response, cells fed with added oleic acid
# Procedure, shortened: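 Laser-scanning cytometry quantifies lipid droplet accumulation (500–530 nm total intensity; droplet/cell object ratio) in oleic acid-fed (400 uM added) Drosophila S3 cells treated with a concentration series. 20 uM Triacsin C defined 100% inhibition.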
# [1] = measured here: lipid fluorescence (Fed channel) AC50, cells fed with added oleic acid
# [2] = measured here: cell number channel AC50, cells fed with added oleic acid
smiles,measurement,setting,value
COC(=O)CSC1=C(C#N)C(c2ccc(C)cc2)C2=C(CCCC2=O)N1 (centres undefined),cell number change,,2.67%
same,AC50,[1],"29100 nM [rising, single point]"
O=C(COC(=O)c1ccco1)NCc1ccc2c(c1)OCO2,AC50,[1],"16400 nM [rising, partial curve, poor fit]"
COc1ccc(/C=C2\Oc3cc(OCC(=O)N4CCC[C@H]4CO)ccc3C2=O)c(OC)c1,cell number change,,-27.2%
same,AC50,[1],"18400 nM [falling, single point]"
CCOc1cc2[nH]c(=S)n(CC3CCCO3)c(=O)c2cc1OCC (centres undefined),AC50,[2],"411 nM [rising, full curve]"
same,AC50,[1],"580 nM [rising, full curve]"
CCN1c2ccccc2-c2nc3ccccc3n2C1c1ccccn1 (centres undefined),cell number change,,14%
same,AC50,[1],"3260 nM [rising, full curve, poor fit]"
COc1cccc(OCCCCN2CC(C)OC(C)C2)c1 (centres undefined),cell number change,,49.8%
C[C@@H](CSc1ccccc1)CN1CC[C@H](NC(=O)OCc2ccccc2)CCC1=O,AC50,[1],"29100 nM [falling, single point]"
CC1CCCCC1NC(=O)Cn1c(CN2CCCCC2)nc2ccccc2c1=O (centres undefined),cell number change,,15.2%
same,AC50,[2],"920 nM [rising, partial curve, poor fit]"
same,AC50,[1],"2060 nM [rising, partial curve]"
Cc1cc(NC(=O)c2noc3c2CCCCC3)nn1Cc1ccc(Cl)cc1,cell number change,,-0.785%
same,AC50,[1],"6510 nM [rising, partial curve]"
O=C(COc1ccccc1Cc1ccccc1)Nc1cccc(S(=O)(=O)N2CCOCC2)c1,cell number change,,-15%
O=C(N/N=C/c1cccc([N+](=O)[O-])c1)c1cc2ccccc2o1,cell number change,,22.2%
same,AC50,[1],"103 nM [rising, full curve, poor fit]"
CCOC(=O)N1CCC(NC(=O)c2cnn3c(C(F)(F)F)cc(-c4cccc(OC)c4)nc23)CC1,cell number change,,2.15%
same,AC50,[1],"18400 nM [rising, single point]"
CS(=O)(=O)c1cccc(NC(=O)CSc2nnc3n2CCCCC3)c1,cell number change,,-31.9%
same,AC50,[2],"9200 nM [falling, partial curve, poor fit]"
same,AC50,[1],"4.61 nM [rising, full curve, poor fit]"
O=C(NNC(=O)c1sccc1-n1cccc1)c1ccc(F)cc1,cell number change,,-15.9%
same,AC50,[2],"5.8 nM [falling, full curve, poor fit]"
C/C(=N\NC(=S)Nc1ccccc1)C1Cc2ccccc2C(=O)O1 (centres undefined),AC50,[1],"580 nM [rising, single point]"
COCCn1c(Sc2nc(C)cs2)nc2c1c(=O)[nH]c(=O)n2C,cell number change,,3.9%
COc1ccc2c(c1)OC1=C(C(=O)CCC1)C2C1=C(O)CCCC1=O (centres undefined),cell number change,,-32.2%
same,AC50,[2],"651 nM [falling, partial curve]"
Nc1cccc2c1C(=O)N(C(=O)c1cccc(S(=O)(=O)N3CCCCCC3)c1)C2=O,cell number change,,-8.69%
same,AC50,[1],"3660 nM [falling, partial curve]"
COc1ccc(S(=O)(=O)N(C)c2ccc(C(=O)NCc3ccco3)cc2)cc1OC,AC50,[1],"2910 nM [rising, single point]"
CC(=O)c1cccc(NC(=O)C2CCN(S(=O)(=O)c3cccs3)CC2)c1,cell number change,,1.05%
same,AC50,[1],"6.51 nM [rising, full curve, poor fit]"
NS(=O)(=O)c1ccc2nc(NC(=O)c3ccc(Br)o3)sc2c1,cell number change,,-28.2%
COc1ccc(NC(=O)COC(=O)c2ccc(C)c(S(=O)(=O)N3CCCCC3)c2)cc1,cell number change,,-0.937%
same,AC50,[1],"29100 nM [falling, single point]"
Cc1ccc(CNC(=O)Nc2cccc(C)c2)cc1,cell number change,,-17%
same,AC50,[2],"82 nM [falling, full curve, poor fit]"
same,AC50,[1],"92 nM [falling, full curve, poor fit]"
Cc1ccc(NC(=O)C2OCCc3ccccc32)cc1Cl (centres undefined),cell number change,,-1.23%
same,AC50,[2],"103 nM [falling, full curve, poor fit]"
CC1CC(C)(C)NC(=S)N1CCC(=O)N1CCN(c2ccccc2)CC1 (centres undefined),cell number change,,13.6%
same,AC50,[1],"29100 nM [rising, single point]"
COc1ccc(CCNc2ccc([N+](=O)[O-])cn2)cc1,cell number change,,-15.1%
COc1ccc2c(c1)nc(N)n2Cc1ccccc1,cell number change,,14.7%
Cc1ccc(OCC(=O)N2CCCC(CO)(CCOc3ccccc3)C2)cc1 (centres undefined),AC50,[1],"29100 nM [falling, single point]"
Cc1ccc2cc(COC(=O)c3ccncc3)c(=O)[nH]c2c1,AC50,[2],"580 nM [rising, single point]"
CN(CC(=O)Nc1ccccc1Cl)C(=O)Cn1cc(C(F)(F)F)cc(Cl)c1=O,cell number change,,21%
Cc1ccc(C(=O)NC(=S)NNS(=O)(=O)c2ccc(C)cc2)cc1,cell number change,,5.21%
same,AC50,[1],"731 nM [falling, full curve, poor fit]"
CCOC(=O)NC(Nc1sc2c(c1C(=O)OC)CCN(C)C2)(C(F)(F)F)C(F)(F)F,cell number change,,38.7%
O=C(NCCN1CCCC1)C1CCN(S(=O)(=O)N2CCC3(CC2)OCCO3)CC1,AC50,[1],"23100 nM [falling, partial curve]"
CCCCc1ccc(NC(=S)N2CCN(C(=O)OCC)CC2)cc1,cell number change,,-6.08%
same,AC50,[1],"29100 nM [rising, single point]"
N#CC1=C(N)NC(SCC(=O)O)=C(C#N)C12CCCC2,cell number change,,1.02%
same,AC50,[1],"29100 nM [rising, single point]"
O=S(=O)([N-]c1nc2ccccc2nc1-[n+]1ccc(-c2ccncc2)cc1)c1ccccc1,cell number change,,-30.6%
same,AC50,[1],"23100 nM [falling, partial curve, poor fit]"
CCN(CC)CCCNC(=O)c1nn2c(C(F)(F)F)cc(-c3ccccc3)nc2c1Cl,cell number change,,-5.07%
same,AC50,[1],"29100 nM [falling, single point]"
COc1ccccc1CNC(=O)CN1C(=O)COc2ccc(S(=O)(=O)NC3CCCC3)cc21,cell number change,,-0.494%
same,AC50,[2],"5.17 nM [rising, full curve, poor fit]"
COc1cc(C(=O)OCC(=O)c2cc(C)n(C)c2C)cc(OC)c1OC,cell number change,,-6.57%
same,AC50,[1],"29100 nM [rising, single point]"
O=C(CNC(=O)c1cc2c(s1)CCC2)Nc1ccccc1Br,cell number change,,34.7%
same,AC50,[2],"29100 nM [rising, single point]"
COc1cccc(OCCOc2ccc(/C=C3/SC(=S)NC3=O)cc2)c1,AC50,[1],"2910 nM [rising, single point]"
CC(=O)Nc1ccc(C(=O)COC(=O)c2cccs2)c(F)c1,cell number change,,-14%
same,AC50,[1],"116 nM [falling, full curve, poor fit]"
CC(=O)N1CCN(C2=Nc3cccc4cccc2c34)CC1,cell number change,,25.6%
same,AC50,[2],"3660 nM [rising, partial curve, poor fit]"
same,AC50,[1],"2060 nM [rising, full curve]"
Cc1cccc(OCC(=O)Nc2cc(NC(=O)COc3cccc(C)c3)cc(C(=O)O)c2)c1,cell number change,,2.38%
same,AC50,[1],"116 nM [rising, full curve, poor fit]"
COc1ccc(CCNC(=O)Cc2cccc(C(F)(F)F)c2)cc1OC,cell number change,,23.4%
CCn1c(SCC(=O)Nc2ccc(C(C)=O)cc2)nc2nc3c(cc2c1=O)CCCC3,cell number change,,-153%
same,AC50,[2],"23100 nM [falling, single point]"
CCC(=O)N/C(=N/c1nc(C)cc(C)n1)Nc1ccccc1,cell number change,,5.34%
same,AC50,[1],"130 nM [rising, full curve, poor fit]"
Cn1c(SCC(=O)c2c(N)n(C)c(=O)n(C)c2=O)nnc1-c1ccccc1F,cell number change,,39.9%
same,AC50,[2],"11600 nM [rising, partial curve, poor fit]"
same,AC50,[1],"18400 nM [rising, partial curve, poor fit]"
CC(=O)c1ccc(S(=O)(=O)NCCC(=O)NC(C)c2ccncc2)cc1 (centres undefined),cell number change,,37.2%
same,AC50,[2],"2910 nM [falling, single point]"
same,AC50,[1],"103 nM [rising, full curve, poor fit]"
O=C(c1cc2ccccc2oc1=O)N(Cc1cccs1)CC1CCCO1 (centres undefined),cell number change,,-7.75%
same,AC50,[1],"731 nM [falling, single point]"
Cc1c(NC(=O)CSc2nnnn2-c2ccc(C(=O)O)cc2)c(=O)n(-c2ccccc2)n1C,cell number change,,21.2%
same,AC50,[1],"146 nM [rising, full curve, poor fit]"
CSCCC1COC(c2cccs2)=N1 (centres undefined),cell number change,,-22.5%
same,AC50,[1],"14600 nM [falling, partial curve, poor fit]"
CCOC(=O)Cc1nnc(NC(=O)c2ccccc2OC)s1,cell number change,,-19.3%
same,AC50,[1],"29100 nM [falling, single point]"
Cc1ccc(NC(=O)CC2S/C(=N/N=C3\CCCc4ccccc43)NC2=O)cc1 (centres undefined),cell number change,,2.12%
same,AC50,[1],"103 nM [falling, full curve, poor fit]"
C/C=C/c1ccc(OCCCCOc2ccccc2C(C)=O)c(OC)c1,cell number change,,-5.63%
same,AC50,[1],"517 nM [rising, single point]"
Cc1ccc(S(=O)(=O)N2CCCCC2)cc1NC(=O)C1=NN(c2ccccc2)C(=O)CC1,cell number change,,4.03%
CCN(CC)C(=O)N1CCC(NC(=O)Cc2ccccc2)CC1,cell number change,,-26.4%
same,AC50,[2],"6510 nM [falling, partial curve, poor fit]"
same,AC50,[1],"164 nM [falling, full curve, poor fit]"
COc1ccccc1NS(=O)(=O)c1cc(NC(=O)c2ccccc2F)ccc1N1CCOCC1,AC50,[1],"5.8 nM [falling, full curve, poor fit]"
Cc1nnc(SCC(=O)Nc2ncc3c(n2)CC(C)(C)CC3=O)s1,cell number change,,-14.3%
same,AC50,[1],"29100 nM [rising, single point]"
Cc1cccc(-n2c(SCC(=O)Nc3nnc(C)s3)nnc2-c2ccoc2C)c1,cell number change,,-7.67%
CCN(Cc1ccccc1)S(=O)(=O)c1ccc(C(=O)Nc2nnc(-c3ccccc3OC)o2)cc1,AC50,[2],"5170 nM [falling, single point]"
same,AC50,[1],"4110 nM [falling, single point]"

# For convenience, part of the list above:
smiles,measurement,setting,value
O=C(CNC(=O)c1cc2c(s1)CCC2)Nc1ccccc1Br,AC50,[2],"29100 nM [rising, single point]"
COc1cccc(OCCOc2ccc(/C=C3/SC(=S)NC3=O)cc2)c1,AC50,[1],"2910 nM [rising, single point]"
CC(=O)Nc1ccc(C(=O)COC(=O)c2cccs2)c(F)c1,cell number change,,-14%
same,AC50,[1],"116 nM [falling, full curve, poor fit]"

# Three entries from above in another layout.
smiles	measurement	setting	value
COc1ccccc1NS(=O)(=O)c1cc(NC(=O)c2ccccc2F)ccc1N1CCOCC1	AC50	[1]	5.8 nM [falling, full curve, poor fit]
Cc1nnc(SCC(=O)Nc2ncc3c(n2)CC(C)(C)CC3=O)s1	cell number change		-14.3%
same	AC50	[1]	29100 nM [rising, single point]
